This note sets out measurements from the supplement of paper PMC12067093, “Discovery and optimisation of a covalent ligand for TRIM25 and its application to targeted protein ubiquitination” (Chemical Science, 2025).

The chains behind the UniProt entries cited, without tags or fusion partners. Where a name states a change or a piece, a line headed by the entry shows the natural chain unless it says otherwise.
UniProt P54105: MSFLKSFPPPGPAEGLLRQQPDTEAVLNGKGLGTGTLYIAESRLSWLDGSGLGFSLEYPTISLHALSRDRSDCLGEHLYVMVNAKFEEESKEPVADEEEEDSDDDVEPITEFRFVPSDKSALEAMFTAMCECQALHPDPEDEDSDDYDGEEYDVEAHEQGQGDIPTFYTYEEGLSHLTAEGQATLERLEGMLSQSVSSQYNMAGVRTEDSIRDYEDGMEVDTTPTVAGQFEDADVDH
UniProt Q9BSY4: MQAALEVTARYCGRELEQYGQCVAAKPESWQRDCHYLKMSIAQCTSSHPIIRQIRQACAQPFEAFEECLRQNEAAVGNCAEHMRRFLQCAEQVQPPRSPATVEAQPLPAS
UniProt O76071: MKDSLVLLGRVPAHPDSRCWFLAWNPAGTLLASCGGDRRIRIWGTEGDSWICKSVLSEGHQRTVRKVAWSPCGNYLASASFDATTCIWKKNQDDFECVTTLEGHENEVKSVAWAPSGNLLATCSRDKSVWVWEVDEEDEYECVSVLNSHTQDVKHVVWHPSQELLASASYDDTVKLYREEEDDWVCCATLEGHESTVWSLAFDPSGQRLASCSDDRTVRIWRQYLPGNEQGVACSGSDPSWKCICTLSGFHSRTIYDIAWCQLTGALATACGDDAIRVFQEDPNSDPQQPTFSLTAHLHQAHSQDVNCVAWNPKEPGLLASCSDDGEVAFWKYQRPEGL
UniProt Q9Y259: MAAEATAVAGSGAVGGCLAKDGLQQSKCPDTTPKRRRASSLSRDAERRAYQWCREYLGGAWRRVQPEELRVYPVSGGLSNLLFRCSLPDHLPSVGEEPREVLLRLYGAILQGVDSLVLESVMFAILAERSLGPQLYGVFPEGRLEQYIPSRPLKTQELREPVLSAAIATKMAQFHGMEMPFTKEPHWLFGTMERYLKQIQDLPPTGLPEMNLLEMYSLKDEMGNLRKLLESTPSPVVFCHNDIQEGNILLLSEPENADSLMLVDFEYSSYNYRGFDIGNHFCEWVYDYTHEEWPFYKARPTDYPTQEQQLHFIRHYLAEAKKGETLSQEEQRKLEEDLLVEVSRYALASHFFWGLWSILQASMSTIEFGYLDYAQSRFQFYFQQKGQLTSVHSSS
UniProt Q14008: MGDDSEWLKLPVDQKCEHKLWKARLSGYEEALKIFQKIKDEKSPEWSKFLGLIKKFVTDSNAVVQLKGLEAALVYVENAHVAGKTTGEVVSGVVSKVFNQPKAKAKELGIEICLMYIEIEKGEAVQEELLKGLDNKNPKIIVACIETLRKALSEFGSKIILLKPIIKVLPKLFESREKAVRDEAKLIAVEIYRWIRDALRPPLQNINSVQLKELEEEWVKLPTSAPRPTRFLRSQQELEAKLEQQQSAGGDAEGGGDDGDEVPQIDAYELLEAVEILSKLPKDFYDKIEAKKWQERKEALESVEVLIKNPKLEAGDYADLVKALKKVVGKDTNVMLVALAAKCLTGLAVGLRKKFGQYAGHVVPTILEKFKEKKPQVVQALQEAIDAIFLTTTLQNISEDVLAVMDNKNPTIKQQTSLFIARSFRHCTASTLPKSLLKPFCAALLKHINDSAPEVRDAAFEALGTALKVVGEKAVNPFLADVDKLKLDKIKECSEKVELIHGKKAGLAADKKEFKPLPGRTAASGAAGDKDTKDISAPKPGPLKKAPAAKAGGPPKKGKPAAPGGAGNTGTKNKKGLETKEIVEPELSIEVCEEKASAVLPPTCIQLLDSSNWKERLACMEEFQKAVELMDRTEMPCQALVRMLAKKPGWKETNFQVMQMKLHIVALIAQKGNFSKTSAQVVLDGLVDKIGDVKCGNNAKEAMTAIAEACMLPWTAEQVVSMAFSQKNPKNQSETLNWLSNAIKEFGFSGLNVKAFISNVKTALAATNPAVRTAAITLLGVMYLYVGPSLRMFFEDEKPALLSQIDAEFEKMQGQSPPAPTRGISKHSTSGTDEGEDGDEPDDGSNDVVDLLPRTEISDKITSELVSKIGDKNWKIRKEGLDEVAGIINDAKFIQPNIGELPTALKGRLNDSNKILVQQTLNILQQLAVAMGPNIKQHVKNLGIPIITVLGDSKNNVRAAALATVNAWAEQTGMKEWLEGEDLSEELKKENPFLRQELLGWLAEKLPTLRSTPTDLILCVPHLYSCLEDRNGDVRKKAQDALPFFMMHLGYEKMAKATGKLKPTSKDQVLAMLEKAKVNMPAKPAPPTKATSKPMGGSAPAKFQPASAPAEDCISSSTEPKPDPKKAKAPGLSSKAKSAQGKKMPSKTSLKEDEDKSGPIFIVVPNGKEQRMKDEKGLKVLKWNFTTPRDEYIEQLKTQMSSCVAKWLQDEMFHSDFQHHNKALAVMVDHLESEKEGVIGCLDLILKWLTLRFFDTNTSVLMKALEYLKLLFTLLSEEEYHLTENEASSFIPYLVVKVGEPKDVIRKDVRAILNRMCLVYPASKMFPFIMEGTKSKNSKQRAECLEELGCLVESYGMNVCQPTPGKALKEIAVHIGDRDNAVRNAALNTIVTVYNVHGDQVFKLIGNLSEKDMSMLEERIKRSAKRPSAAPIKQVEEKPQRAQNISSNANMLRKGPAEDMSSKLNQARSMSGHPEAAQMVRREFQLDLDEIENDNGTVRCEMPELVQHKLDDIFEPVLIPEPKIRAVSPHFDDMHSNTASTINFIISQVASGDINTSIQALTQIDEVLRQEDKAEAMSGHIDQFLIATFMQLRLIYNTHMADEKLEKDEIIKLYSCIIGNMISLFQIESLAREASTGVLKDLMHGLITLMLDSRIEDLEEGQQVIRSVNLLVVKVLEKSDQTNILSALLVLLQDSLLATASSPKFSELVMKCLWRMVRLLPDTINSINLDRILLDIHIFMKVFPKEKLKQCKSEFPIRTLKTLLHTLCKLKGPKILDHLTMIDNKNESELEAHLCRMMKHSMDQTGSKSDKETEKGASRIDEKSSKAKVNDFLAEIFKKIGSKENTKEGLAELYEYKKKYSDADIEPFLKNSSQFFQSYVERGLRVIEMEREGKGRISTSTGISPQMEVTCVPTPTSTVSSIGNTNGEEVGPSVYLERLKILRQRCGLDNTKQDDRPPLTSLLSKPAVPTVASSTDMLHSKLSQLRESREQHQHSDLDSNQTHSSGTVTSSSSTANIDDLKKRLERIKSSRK
UniProt P23528, whole entry, looked up: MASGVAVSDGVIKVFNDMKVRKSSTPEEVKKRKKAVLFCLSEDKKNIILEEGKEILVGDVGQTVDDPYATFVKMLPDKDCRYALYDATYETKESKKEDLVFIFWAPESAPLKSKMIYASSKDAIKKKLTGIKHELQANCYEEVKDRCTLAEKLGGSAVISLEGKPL
UniProt Q9UHD1: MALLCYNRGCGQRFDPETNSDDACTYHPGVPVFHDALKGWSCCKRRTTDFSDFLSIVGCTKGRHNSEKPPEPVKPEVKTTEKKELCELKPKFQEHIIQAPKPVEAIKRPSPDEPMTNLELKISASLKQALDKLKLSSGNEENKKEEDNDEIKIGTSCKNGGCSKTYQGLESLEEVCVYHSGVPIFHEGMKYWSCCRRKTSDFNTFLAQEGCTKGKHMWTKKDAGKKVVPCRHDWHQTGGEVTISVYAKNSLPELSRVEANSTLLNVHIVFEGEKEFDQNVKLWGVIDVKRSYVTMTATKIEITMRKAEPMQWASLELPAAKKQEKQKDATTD
UniProt Q9HCK8: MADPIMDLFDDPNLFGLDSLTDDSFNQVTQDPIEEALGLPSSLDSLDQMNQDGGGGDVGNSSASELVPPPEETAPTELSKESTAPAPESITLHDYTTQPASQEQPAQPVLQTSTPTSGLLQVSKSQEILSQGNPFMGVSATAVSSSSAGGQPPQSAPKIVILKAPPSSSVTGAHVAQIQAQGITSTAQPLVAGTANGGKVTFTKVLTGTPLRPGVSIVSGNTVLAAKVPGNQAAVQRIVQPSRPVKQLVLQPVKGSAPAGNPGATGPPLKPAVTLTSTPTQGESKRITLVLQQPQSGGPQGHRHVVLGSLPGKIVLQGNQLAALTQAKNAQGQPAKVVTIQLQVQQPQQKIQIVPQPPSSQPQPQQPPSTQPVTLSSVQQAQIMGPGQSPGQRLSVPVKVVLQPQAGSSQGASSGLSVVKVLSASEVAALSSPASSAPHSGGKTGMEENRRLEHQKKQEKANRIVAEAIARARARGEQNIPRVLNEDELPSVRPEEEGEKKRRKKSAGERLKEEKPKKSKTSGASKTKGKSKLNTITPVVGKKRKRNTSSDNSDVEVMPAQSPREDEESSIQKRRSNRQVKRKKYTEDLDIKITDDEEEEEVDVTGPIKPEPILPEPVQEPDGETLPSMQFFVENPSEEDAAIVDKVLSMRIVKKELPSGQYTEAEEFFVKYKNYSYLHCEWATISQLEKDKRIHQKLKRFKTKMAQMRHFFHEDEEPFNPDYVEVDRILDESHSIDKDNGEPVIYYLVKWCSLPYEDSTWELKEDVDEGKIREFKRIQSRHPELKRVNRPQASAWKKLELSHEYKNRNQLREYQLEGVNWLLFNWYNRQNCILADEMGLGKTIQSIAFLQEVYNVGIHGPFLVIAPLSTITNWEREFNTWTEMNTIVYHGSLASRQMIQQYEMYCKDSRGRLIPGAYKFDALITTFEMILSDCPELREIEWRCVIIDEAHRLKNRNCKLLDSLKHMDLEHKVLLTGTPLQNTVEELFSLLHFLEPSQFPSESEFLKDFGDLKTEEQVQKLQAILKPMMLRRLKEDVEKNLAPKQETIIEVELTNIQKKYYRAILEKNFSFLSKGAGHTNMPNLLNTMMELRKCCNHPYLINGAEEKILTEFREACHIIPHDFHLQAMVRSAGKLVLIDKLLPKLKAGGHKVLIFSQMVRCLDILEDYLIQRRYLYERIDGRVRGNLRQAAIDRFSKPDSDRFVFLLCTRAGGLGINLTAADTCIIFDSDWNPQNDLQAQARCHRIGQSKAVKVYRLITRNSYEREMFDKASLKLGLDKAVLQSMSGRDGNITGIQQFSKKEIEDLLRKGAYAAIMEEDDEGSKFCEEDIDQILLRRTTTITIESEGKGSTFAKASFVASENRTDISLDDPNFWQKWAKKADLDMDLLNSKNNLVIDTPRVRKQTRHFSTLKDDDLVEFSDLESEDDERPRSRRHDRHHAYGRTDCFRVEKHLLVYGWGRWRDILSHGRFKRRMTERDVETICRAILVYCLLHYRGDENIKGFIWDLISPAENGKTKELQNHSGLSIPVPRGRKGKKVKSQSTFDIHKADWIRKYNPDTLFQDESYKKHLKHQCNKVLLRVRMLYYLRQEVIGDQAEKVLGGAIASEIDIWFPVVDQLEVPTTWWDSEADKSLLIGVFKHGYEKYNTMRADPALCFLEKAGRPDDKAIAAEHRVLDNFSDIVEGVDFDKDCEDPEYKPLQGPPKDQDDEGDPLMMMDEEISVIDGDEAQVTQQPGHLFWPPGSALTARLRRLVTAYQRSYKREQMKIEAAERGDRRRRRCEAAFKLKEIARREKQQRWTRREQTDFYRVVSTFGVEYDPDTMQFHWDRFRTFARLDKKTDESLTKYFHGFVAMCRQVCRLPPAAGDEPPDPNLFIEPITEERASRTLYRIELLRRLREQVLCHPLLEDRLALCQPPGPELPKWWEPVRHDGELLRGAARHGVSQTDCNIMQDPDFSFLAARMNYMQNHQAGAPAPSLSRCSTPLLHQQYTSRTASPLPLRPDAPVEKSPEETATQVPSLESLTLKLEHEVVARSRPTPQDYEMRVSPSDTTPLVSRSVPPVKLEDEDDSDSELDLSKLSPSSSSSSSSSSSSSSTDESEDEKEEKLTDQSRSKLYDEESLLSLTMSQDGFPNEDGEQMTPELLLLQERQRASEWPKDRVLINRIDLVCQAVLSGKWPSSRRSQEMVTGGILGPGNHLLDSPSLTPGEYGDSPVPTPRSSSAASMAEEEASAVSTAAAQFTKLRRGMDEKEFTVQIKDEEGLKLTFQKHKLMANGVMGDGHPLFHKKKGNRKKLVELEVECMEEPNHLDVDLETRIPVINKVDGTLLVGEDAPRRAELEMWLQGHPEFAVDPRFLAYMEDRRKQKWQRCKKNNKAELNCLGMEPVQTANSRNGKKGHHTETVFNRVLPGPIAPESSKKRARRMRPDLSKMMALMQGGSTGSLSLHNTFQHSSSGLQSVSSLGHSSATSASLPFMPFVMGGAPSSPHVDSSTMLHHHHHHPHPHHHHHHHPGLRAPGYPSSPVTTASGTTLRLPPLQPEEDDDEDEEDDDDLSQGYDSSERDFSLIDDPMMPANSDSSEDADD
UniProt Q9UFW8: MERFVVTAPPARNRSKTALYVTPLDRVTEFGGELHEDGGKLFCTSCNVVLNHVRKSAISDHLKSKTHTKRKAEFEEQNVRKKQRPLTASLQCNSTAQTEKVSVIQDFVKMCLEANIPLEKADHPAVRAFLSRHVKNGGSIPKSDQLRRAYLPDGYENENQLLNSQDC
UniProt Q9NZZ3: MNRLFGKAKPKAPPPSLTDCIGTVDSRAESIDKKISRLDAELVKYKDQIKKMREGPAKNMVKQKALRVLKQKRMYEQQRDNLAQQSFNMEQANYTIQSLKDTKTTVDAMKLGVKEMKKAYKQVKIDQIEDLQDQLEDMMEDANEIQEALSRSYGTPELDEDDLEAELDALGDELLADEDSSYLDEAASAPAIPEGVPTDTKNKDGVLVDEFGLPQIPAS

This is one part of the list.

Compound in this assay: CC1Cc2ccccc2N1C(=O)C1CCCN(C1)C(=O)CCl (mixture of isomers) [TRIM25 ligand 11 (diastereomer mixture)]
Put plainly: probe-labelled cysteine peptide fold change vs DMSO (competition) (log2 fold change); higher = less target engagement (more negative = stronger competition). The settings on record: THP-1, incubation time: 4 h.
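Note: competitive chemoproteomic profiling in live THP-1 cells with an iodoacetamide desthiobiotin (IA-DTB) probe, comparing probe-labelled peptide intensities in compound-treated cells against DMSO-treated controls.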

For “CHST13_Q8NET6_81_DLLNSACSR (UniProt Q8NET6)”, the “probe-labelled cysteine peptide fold change” value by setting is: (10 µM) 0.0402; (50 µM) -0.0104.
For “CLNS1A_P54105_73_DRSDCLGEHLYVMVNAK (UniProt P54105)”, in that order: -0.0291 and -0.193.
Consider “CHTF18_Q8WVB6_825_LEPNVEELCRFPELPAR (UniProt Q8WVB6)”, for which the “probe-labelled cysteine peptide fold change” value is, setting by setting: (10 µM) 0.0641; (50 µM) -0.102.
Turning to “CLIC1_O00299_178_FLDGNELTLADCNLLPK (UniProt O00299)”, the “probe-labelled cysteine peptide fold change” value was -0.0126 (10 µM) and 0.041 (50 µM).
On to “CHCHD5_Q9BSY4_44_MSIAQCTSSHPIIR (UniProt Q9BSY4)”, for which the “probe-labelled cysteine peptide fold change” value is, setting by setting: (10 µM) 0.028; (50 µM) -0.2.
For “CES1_P23141_390_SYPLVCIAK (UniProt P23141)”, in that order: -0.0706 and 0.0945.
For “CIP2A_Q8TCG1_358_WLSQPLDGSENCSVLALELFK (UniProt Q8TCG1)”, in that order: 0.456 and 0.23.
On to “CIAO1_O76071_261_TIYDIAWCQLTGALATACGDDAIR (UniProt O76071)”, for which the “probe-labelled cysteine peptide fold change” value reads like this: (10 µM) 0.0119; (50 µM) -0.00201.
Turning to “CHKB_Q9Y259_17_AAEATAVAGSGAVGGCLAK (UniProt Q9Y259)”, the “probe-labelled cysteine peptide fold change” value runs as follows: (10 µM) -0.00739; (50 µM) -0.415.
“CHAMP1_Q96JM3_787_HLTHCQSR (UniProt Q96JM3)”: the “probe-labelled cysteine peptide fold change” value reads like this: (10 µM) 0.0933; (50 µM) -0.309.
For the target “CLIP1_P30622_111_YFQCEPLK (UniProt P30622)”, the “probe-labelled cysteine peptide fold change” value is -0.0948 (10 µM) and -0.00738 (50 µM).
For the target “CKAP5_Q14008_1203_TQMSSCVAK (UniProt Q14008)”, the “probe-labelled cysteine peptide fold change” value (10 µM) was found to be 0.0255 and the “probe-labelled cysteine peptide fold change” value (50 µM) is -0.0344.
Take “CFL1_P23528_147_DRCTLAEK (UniProt P23528)”: the “probe-labelled cysteine peptide fold change” value runs as follows: (10 µM) 0.00754; (50 µM) -0.221.
Consider “CKAP5_Q14008_1795_ILDHLTMIDNKNESELEAHLCR (UniProt Q14008)”, for which the “probe-labelled cysteine peptide fold change” value is, setting by setting: (10 µM) -0.154; (50 µM) -0.261.
Regarding “CHORDC1_Q9UHD1_59_TTDFSDFLSIVGCTK (UniProt Q9UHD1)”, the “probe-labelled cysteine peptide fold change” value (10 µM) is -0.0281 and the “probe-labelled cysteine peptide fold change” value (50 µM) is -0.115.
Turning to “CLIC4_Q9Y696_234_DEFTNTCPSDK (UniProt Q9Y696)”, the “probe-labelled cysteine peptide fold change” value is 0.0598 (10 µM) and -0.00675 (50 µM).
In the case of “CIP2A_Q8TCG1_472_VADSELCK (UniProt Q8TCG1)”, the “probe-labelled cysteine peptide fold change” value (10 µM) is 0.133 and the “probe-labelled cysteine peptide fold change” value (50 µM) came out at 0.168.
With “CHD3_Q12873_1464_HLCEPGADGSETFADGVPR (UniProt Q12873)”, the “probe-labelled cysteine peptide fold change” value was -0.0391 (10 µM) and -0.19 (50 µM).
With “CKAP5_Q14008_637_AVELMDRTEMPCQALVR (UniProt Q14008)”, the “probe-labelled cysteine peptide fold change” value (10 µM) is -0.202 and the “probe-labelled cysteine peptide fold change” value (50 µM) is -0.231.
“CHPF_Q8IZ52_266_MLLQQLRPHLEGCR (UniProt Q8IZ52)”: the “probe-labelled cysteine peptide fold change” value came to 0.176 (10 µM) and 0.00392 (50 µM).
The matching figures for “CLCC1_Q96S66_60+67_DVSPDLSCADEISECYHK (UniProt Q96S66)”: 0.0233 and -0.0365.
With “CHD8_Q9HCK8_1913_LALCQPPGPELPK (UniProt Q9HCK8)”, the “probe-labelled cysteine peptide fold change” value was -0.0272 (10 µM) and -0.0498 (50 µM).
The matching figures for “CHCHD3_Q9NX63_204+214_CSALATQYMHCVNHAK (UniProt Q9NX63)”: -0.0243 and 0.119.
On to “CHORDC1_Q9UHD1_24_FDPETNSDDACTYHPGVPVFHDALK (UniProt Q9UHD1)”, for which the “probe-labelled cysteine peptide fold change” value is -0.106 (10 µM) and -0.11 (50 µM).
In the case of “CHD8_Q9HCK8_2300_LVELEVECMEEPNHLDVDLETR (UniProt Q9HCK8)”, the “probe-labelled cysteine peptide fold change” value runs as follows: (10 µM) 0.185; (50 µM) -0.423.
Take “CIAO1_O76071_123_SVAWAPSGNLLATCSR (UniProt O76071)”: the “probe-labelled cysteine peptide fold change” value (10 µM) was 0.00384 and the “probe-labelled cysteine peptide fold change” value (50 µM) was 0.0653.
For the target “CHCHD5_Q9BSY4_22_ELEQYGQCVAAKPESWQR (UniProt Q9BSY4)”, the “probe-labelled cysteine peptide fold change” value by setting is: (10 µM) 0.047; (50 µM) 0.2.
On to “CFAP20_Q9Y6A4_61_RITDNDIQSLVLEIEGTNVSTTYITCPADPKK (UniProt Q9Y6A4)”, for which the “probe-labelled cysteine peptide fold change” value by setting is: (10 µM) -0.0841; (50 µM) -0.0161.
Take “CGGBP1_Q9UFW8_92_QRPLTASLQCNSTAQTEK (UniProt Q9UFW8)”: the “probe-labelled cysteine peptide fold change” value (10 µM) was -0.0354 and the “probe-labelled cysteine peptide fold change” value (50 µM) was -0.112.
The matching figures for “CHMP5_Q9NZZ3_20_APPPSLTDCIGTVDSR (UniProt Q9NZZ3)”: -0.0842 and -0.129.
The matching figures for “CHST11_Q9NPF2_89_RDQVTDTCR (UniProt Q9NPF2)”: -0.0293 and -0.0834.
For “CFAP298_P57076_45_LCSEMEELAEHGIFLPPNMQGLTDDQIEELK (UniProt P57076)”, the “probe-labelled cysteine peptide fold change” value by setting is: (10 µM) 0.113; (50 µM) -0.478.
CHKB_Q9Y259_28_CPDTTPK (UniProt Q9Y259): the “probe-labelled cysteine peptide fold change” value is -0.12 (10 µM) and -0.2 (50 µM).
For “CKAP5_Q14008_1795_NESELEAHLCR (UniProt Q14008)”, in that order: 0.0496 and 0.0689.
For “CHD1_O14646_376_NASPEDVEYYNCQQELTDDLHK (UniProt O14646)”, the “probe-labelled cysteine peptide fold change” value is -0.0832 (10 µM) and -0.0871 (50 µM).
The matching figures for “CHAF1A_Q13111_465_TLAGSCGK (UniProt Q13111)”: -0.183 and -0.234.
For “CIT_O14578_1655_ALCLVDVKK (UniProt O14578)”, in that order: -0.113 and -0.00528.
For “CHD1L_Q86WJ1_123_FAPGLSCVTYAGDK (UniProt Q86WJ1)”, in that order: 0.329 and 0.29.
In the case of “CHD9_Q3L8U1_1705_ADPALCFLER (UniProt Q3L8U1)”, the “probe-labelled cysteine peptide fold change” value by setting is: (10 µM) 0.0774; (50 µM) 0.179.
